Some of the results follow. Most values lie at the level of the controls, where differences are scatter.
What follows are targets tested with CN[C@@H]1C[C@H]2O[C@@](C)([C@@H]1OC)n1c3ccccc3c3c4c(c5c6ccccc6n2c5c31)C(=O)NC4 [staurosporine] (assay: log2 fold change of tryptic peptide abundance, ligand vs vehicle (limited proteolysis) (log2 ratio); higher = more trypsin-susceptible (destabilized)). Settings: ligand concentration: 20 uM; sample: mouse liver crude lysate; replicate design: treated separately.

By UniProt entry, the sequences of proteins in these tests, tags left out. Where a name states a change or a piece, a line headed by the entry shows the natural chain unless it says otherwise.
UniProt Q3TQI7: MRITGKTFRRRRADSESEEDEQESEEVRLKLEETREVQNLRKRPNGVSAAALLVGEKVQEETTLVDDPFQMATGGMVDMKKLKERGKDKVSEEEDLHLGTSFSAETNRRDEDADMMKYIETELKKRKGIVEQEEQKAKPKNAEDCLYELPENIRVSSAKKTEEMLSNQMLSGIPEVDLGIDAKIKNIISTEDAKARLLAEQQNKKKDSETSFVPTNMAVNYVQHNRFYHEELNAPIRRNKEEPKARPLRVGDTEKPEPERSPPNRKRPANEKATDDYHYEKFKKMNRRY
UniProt Q03160, whole entry: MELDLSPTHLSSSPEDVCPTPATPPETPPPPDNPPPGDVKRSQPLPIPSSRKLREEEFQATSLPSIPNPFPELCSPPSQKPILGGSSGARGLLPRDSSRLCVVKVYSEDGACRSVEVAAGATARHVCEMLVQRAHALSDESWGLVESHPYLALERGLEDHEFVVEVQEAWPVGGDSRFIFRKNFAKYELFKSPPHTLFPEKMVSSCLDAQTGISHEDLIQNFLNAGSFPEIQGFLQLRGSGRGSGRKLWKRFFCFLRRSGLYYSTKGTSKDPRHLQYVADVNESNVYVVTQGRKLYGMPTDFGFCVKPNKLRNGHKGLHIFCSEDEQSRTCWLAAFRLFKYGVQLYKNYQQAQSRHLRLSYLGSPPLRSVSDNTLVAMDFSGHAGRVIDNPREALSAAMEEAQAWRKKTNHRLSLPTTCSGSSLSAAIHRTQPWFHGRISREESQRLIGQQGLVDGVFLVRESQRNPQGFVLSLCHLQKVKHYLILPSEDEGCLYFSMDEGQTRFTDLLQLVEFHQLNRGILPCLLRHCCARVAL
UniProt Q07113, whole entry: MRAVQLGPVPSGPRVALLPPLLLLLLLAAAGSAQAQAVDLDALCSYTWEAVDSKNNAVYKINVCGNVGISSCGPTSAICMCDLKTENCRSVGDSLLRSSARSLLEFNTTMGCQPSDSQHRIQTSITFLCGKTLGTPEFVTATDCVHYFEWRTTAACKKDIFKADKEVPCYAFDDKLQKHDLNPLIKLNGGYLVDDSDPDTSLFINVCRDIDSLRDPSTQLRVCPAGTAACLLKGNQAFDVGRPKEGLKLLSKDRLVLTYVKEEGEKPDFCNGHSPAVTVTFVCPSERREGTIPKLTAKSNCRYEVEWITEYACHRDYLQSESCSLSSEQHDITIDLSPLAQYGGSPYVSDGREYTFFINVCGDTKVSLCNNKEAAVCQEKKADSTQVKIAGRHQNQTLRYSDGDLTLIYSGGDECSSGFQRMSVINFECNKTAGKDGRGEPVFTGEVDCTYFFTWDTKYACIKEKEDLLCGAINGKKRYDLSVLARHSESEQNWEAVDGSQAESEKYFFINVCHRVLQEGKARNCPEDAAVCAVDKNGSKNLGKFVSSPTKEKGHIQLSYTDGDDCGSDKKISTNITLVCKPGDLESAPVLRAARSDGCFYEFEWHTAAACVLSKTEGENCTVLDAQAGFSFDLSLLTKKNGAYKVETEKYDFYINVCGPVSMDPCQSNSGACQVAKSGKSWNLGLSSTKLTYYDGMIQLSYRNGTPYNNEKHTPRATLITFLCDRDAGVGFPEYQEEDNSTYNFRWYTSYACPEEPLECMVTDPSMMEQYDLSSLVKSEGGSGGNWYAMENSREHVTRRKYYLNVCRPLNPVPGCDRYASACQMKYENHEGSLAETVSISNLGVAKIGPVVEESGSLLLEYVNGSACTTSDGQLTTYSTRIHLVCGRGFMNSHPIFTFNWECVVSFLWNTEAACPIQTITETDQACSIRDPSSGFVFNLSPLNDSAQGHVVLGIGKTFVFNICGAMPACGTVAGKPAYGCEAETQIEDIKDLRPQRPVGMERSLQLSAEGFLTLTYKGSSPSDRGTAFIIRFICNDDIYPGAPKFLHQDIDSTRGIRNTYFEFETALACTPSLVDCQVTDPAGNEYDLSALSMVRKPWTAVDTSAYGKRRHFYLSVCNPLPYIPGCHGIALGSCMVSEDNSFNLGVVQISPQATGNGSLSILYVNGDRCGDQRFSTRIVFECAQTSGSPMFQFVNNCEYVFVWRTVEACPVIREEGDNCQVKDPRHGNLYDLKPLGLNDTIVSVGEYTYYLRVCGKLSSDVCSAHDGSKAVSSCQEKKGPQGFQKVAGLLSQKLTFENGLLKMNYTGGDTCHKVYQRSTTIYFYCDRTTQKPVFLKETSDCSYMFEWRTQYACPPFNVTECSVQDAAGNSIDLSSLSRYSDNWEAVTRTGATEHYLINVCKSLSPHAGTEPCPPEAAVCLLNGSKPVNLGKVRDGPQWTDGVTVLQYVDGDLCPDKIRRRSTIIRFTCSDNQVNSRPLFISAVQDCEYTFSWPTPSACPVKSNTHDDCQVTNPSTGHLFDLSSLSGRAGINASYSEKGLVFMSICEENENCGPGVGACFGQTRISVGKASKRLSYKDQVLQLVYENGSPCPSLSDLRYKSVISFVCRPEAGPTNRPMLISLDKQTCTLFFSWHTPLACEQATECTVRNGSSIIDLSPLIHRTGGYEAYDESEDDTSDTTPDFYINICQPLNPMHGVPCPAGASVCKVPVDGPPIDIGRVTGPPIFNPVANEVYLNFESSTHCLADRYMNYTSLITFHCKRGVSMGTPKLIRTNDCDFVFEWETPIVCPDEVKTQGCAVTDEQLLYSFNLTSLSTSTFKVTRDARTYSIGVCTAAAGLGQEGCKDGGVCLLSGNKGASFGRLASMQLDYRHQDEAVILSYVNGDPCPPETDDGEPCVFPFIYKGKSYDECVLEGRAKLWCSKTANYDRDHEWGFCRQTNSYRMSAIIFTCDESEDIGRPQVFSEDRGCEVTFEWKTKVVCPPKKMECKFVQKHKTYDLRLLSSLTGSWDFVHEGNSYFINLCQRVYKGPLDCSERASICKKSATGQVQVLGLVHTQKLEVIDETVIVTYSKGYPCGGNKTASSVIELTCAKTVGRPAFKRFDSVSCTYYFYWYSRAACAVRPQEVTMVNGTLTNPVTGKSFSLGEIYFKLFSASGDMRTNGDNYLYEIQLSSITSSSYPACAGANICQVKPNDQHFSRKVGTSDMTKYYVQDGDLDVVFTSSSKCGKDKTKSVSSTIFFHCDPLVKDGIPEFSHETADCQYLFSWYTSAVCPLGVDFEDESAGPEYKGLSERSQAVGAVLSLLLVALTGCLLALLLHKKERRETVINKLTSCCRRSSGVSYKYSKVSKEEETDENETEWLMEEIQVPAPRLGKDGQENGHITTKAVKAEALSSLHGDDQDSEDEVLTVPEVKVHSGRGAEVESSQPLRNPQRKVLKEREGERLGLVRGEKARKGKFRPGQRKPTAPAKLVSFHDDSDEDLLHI
UniProt Q1H9T6: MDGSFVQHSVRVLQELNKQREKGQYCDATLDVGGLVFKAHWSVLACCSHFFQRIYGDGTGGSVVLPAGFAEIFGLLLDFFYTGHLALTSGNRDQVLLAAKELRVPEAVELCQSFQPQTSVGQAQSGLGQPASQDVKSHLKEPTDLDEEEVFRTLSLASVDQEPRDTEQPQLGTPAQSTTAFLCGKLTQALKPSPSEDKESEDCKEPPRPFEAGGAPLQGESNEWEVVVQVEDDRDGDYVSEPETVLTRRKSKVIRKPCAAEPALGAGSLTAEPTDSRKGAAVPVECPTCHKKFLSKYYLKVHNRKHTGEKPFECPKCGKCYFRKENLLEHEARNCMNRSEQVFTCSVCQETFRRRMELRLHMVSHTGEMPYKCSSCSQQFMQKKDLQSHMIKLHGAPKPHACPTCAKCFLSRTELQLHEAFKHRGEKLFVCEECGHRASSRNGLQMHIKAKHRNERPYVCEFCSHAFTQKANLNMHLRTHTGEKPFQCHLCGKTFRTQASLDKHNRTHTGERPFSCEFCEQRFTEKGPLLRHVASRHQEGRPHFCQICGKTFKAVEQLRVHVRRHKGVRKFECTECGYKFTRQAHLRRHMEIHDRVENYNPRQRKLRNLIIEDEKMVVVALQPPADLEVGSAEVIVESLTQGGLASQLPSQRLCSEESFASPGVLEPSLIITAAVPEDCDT
UniProt Q06138: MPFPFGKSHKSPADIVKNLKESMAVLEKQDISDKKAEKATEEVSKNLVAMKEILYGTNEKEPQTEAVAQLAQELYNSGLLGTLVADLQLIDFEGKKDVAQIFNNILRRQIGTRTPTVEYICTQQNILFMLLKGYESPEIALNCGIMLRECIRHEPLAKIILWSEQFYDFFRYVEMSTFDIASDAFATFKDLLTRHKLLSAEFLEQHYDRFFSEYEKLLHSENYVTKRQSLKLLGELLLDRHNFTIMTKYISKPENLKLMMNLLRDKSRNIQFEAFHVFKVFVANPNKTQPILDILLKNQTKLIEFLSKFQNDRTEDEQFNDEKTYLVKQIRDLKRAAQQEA

Row | Target | log2 fold change
1 | UniProt Q3TQI7 (peptide sequence: LLAEQQNK, peptide start residue: 197) | -0.178
2 | UniProt Q03160 (peptide sequence: HVCEMLVQR, peptide start residue: 125) | 0.206
3 | UniProt Q07113 (peptide sequence: GAEVESSQPLRNPQR, peptide start residue: 2418) | -0.169
4 | UniProt Q1H9T6 (peptide sequence: TLSLASVDQEPR, peptide start residue: 153) | -0.119
5 | UniProt Q06138 (peptide sequence: LMMNLLR, peptide start residue: 257) | 0.11

Reference: the supplement of paper PMC12819154, “High-throughput peptide-centric local stability assay extends protein–ligand identification to membrane proteins, tissues and bacteria” (Nature Structural & Molecular Biology, 2025)
